One molecule from article PMC8954547, “Nonpeptidic Z360-Analogs Tagged with Trivalent Radiometals as Anti-CCK2R Cancer Theranostic Agents: A Preclinical Study” (Pharmaceutics, 2022) can be followed below.

The target of this test is human CCK2i4svR splice variant of the cholecystokinin subtype 2 receptor (human). The test is described as follows: radioligand binding; competition format: 50 pM [125I][I-Tyr12,Leu15]gastrin-17 with HEK293-CCK2i4svR membrane homogenate and increasing concentrations (10^-13-10^-6 M) of nonpeptidic Z360 analogs; 50 mM HEPES pH 7.4, 1% BSA, 5.5 mM MgCl2, 35 uM bacitracin; 1 h at 22 °C; filtration through GF/B filters; only the binder purified.

No constants are given. Whether binding was seen depends on the method and setting. A result given as binding can be weak or reduced; the word gives no strength.

Take QGPWLEEEEEAYGWLDF (pGlu at position 1; 125I-iodo-Tyr at position 12; C-terminal amide) [[125I][I-Tyr12,Leu15]gastrin-17]: the binding entry is reported as “binds”.
